Test results published in PubChem BioAssay AID504467 (National Center for Advancing Translational Sciences (NCATS), 2011).
Among all 330,000 compounds or so, about 7,700 (2.3%) were called active. Inconclusive means that the source gave no clear call. Such entries were picked first, then a sample of the others. The call rests on the fitted dose curve; in most records, active means well fitted inhibition curve with a large enough effect; inconclusive means small, poorly fitted or top-dose-only effect, or effect the other way; inactive means flat fitted curve, though single readings scatter. A potency beside an inconclusive call is a rough fit, not a confirmed value.

Experiment: qHTS screen for small molecules that inhibit ELG1-dependent DNA repair in human embryonic kidney (HEK293T) cells expressing luciferase-tagged ELG1; further: nearly all actives have a fitted effect of over 55% in size
Conditions: HEK293T ELG1-luciferase reporter, luminescence, 16 h, DNA damage induced by 5-fluorouridine; activity change, negative = inhibition: at 46.1 µM (top of the series)
In short: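 Quantitative HTS, concentration-response format. 2,000 cells/well co-treated with 5-fluorouridine and compound, 16 hr in 5% CO2 at 37 °C; ONE-Glo luminescence read after 30 min.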
On the % scale 0 is the no-effect control and ±100 the full control effect; potency means the concentration at half of the fitted maximal effect.

Compound	activity change, negative = inhibition	Potency
CN1CCN(C(=O)c2ccccc2NS(=O)(=O)c2ccc(F)cc2)CC1	inactive: 14.8%	–
CCOC(=O)c1oc2ccccc2c1NC(=O)c1cccc(OC)c1OC	–	inconclusive: 16.4 µM [inhibitor, partial curve]
c1ccc(-c2nccc(-c3ccc4c(c3)OCO4)n2)cc1	–	inconclusive: 23.1 µM [activator, partial curve]
COc1ccc(C(=O)/C=C/Nc2ccccn2)cc1	–	inconclusive: 0.259 µM [activator, partial curve]
CCOC(=O)c1ccc(NC(=O)Oc2ccccc2)cc1	–	inconclusive: 29.1 µM [activator, single point]
N=C1/C(=C/c2ccc(-c3cccc(C(=O)O)c3)o2)C(=O)N=C2SC=C(c3ccccc3)N12	–	inconclusive: 25.9 µM [activator, single point]
CN(C)c1ccc(N=Nc2ccc(C(=O)O)cc2)cc1	–	inconclusive: 0.0052 µM [activator, full curve, poor fit]
O=C(OCC(=O)N1CCCc2ccccc21)c1ccc(C(F)(F)F)cc1	–	inconclusive: 5.17 µM [activator, partial curve]
Cc1cccc(OCC(=O)N2CCOCC2)c1	–	inconclusive: 14.6 µM [activator, partial curve]
CN(CC(=O)Nc1ccccc1Br)C(=O)CCC1CCCC1	–	inconclusive: 29.1 µM [activator, single point]
O=C(CSc1nc2ccncc2[nH]1)Nc1ccccc1C(F)(F)F	–	inconclusive: 14.6 µM [inhibitor, partial curve]
COc1ccc(C2CC(c3ccccc3)=NN2C(=O)CCC(=O)O)cc1 (stereo not drawn)	inactive: 0.678%	–
Cc1ccc(Nc2ccc(C(=O)NCCc3ccccc3)cn2)cc1	–	inconclusive: 20.6 µM [activator, single point]
C[C@H]1COC(=O)CC/C=C\C[C@H](CC(=O)N(CCO)Cc2ccccc2)C(=O)N1	inactive: 28.4%	–
Cc1ccc(NC(=O)c2oc3c(c2C)C(=O)CC(C)(C)C3)cc1	inactive: 3.02%	–
CC(C)[C@H](NC(=O)N1c2ccccc2NC(=O)[C@@H]1C(C)C)C(=O)N1CCC(C(=O)O)CC1	–	inconclusive: 29.1 µM [activator, single point]
COc1ccccc1NC(=O)c1c(N=Cc2c(O)ccc3ccccc23)cnn1C	–	inconclusive: 18.3 µM [inhibitor, single point]
COc1ccccc1N(Cc1ccccc1)S(=O)(=O)c1cccc(C(=O)Nc2ccc(C)cn2)c1	–	inconclusive: 4.11 µM [inhibitor, single point]
C=CCn1c(SCc2c(C(=O)OC)sc(N)c2C(=O)OC)nnc1-c1ccc(Br)cc1	–	inconclusive: 20.6 µM [inhibitor, single point]
Cc1nonc1NC(=O)c1ccc(Cl)c(S(=O)(=O)N2CCCCC2)c1	–	inconclusive: 25.9 µM [inhibitor, single point]
Cc1cc(OCc2cc(C(=O)N(C)CCc3cnn(C)c3)no2)cc(C)c1Cl	–	inconclusive: 3.26 µM [activator, full curve]
Cc1ccc(Nc2nnc(SCC(=O)Nc3cc(C(=O)O)ccc3C)s2)c(C)c1	inactive: 1.79%	–

Complete entries from above. Values in the order: activity change, negative = inhibition | Potency
C[C@H]1COC(=O)CC/C=C\C[C@H](CC(=O)N(CCO)Cc2ccccc2)C(=O)N1 as listed: inactive: 28.4% | –
c1ccc(-c2nccc(-c3ccc4c(c3)OCO4)n2)cc1 as listed: – | inconclusive: 23.1 µM [activator, partial curve]

Remaining list, next part:

Compound	activity change, negative = inhibition	Potency
CCOC(=O)N1CCN(c2nc(C)c3c(n2)CCCC3=O)CC1	–	inconclusive: 18.4 µM [activator, partial curve]
CC(/C=C/c1ccco1)=N\NC(=O)C(O)c1ccccc1 (stereo not drawn)	–	inconclusive: 23.1 µM [activator, single point]
CNC(=O)c1ccc(NC(=O)C2CCN(c3ncnc4sc(C)c(C)c34)CC2)cc1	–	active: 9.2 µM
c1ccc2c(c1)OCC(c1csc3ncnc(N4CCOCC4)c13)O2 (stereo not drawn)	–	inconclusive: 16.4 µM [inhibitor, partial curve, poor fit]
COc1ccc(Br)cc1C(=O)NC(=S)Nc1ccc(CN2CCOCC2)cc1	–	inconclusive: 20.6 µM [inhibitor, single point]
COc1ccc(CC(=O)N2CCC(n3nccc3NC(=O)C3CC3)CC2)cc1	–	inconclusive: 13 µM [activator, partial curve, poor fit]
COC(c1ccccc1)c1nnc(CCC(=O)NCCC(C)C)o1 (stereo not drawn)	inactive: 0.707%	–
COc1ccc(CCNc2cc(N3CCN(C(=O)c4ccc(C)cc4)CC3)ccc2[N+](=O)[O-])cc1OC	–	active: 2.06 µM
O=C(C1CCN(Cc2ccc(OCc3ccccc3)cc2)CC1)N1CCCC1	–	inconclusive: 20.6 µM [activator, single point]
OC(COc1ccc(-c2ccccc2)cc1)CN1CCOCC1 (stereo not drawn)	inactive: 27.3%	–
COCCCNc1nc2c(c(=O)[nH]c(=O)n2C)n1CCCc1ccccc1	–	inconclusive: 18.4 µM [activator, single point]
N#Cc1ccc(C(=O)OCC(=O)NC2CCCC2)cc1	–	inconclusive: 5.8 µM [activator, partial curve, poor fit]
O=C(Nc1nnc(C23CC4CC(CC(C4)C2)C3)s1)c1ccco1	–	inconclusive: 10.3 µM [activator, partial curve]
COc1ccc(-c2noc(C3CCCN(C(=O)c4cccc(F)c4)C3)n2)cc1 (stereo not drawn)	inactive: -28.2%	–
CCCc1cc(C(=O)Nc2nnc(C)s2)cs1	–	inconclusive: 7.31 µM [activator, partial curve]
N#Cc1ccc(S(=O)(=O)NCC(=O)OCC(=O)N2CCCC2=O)cc1	inactive: 12.3%	–
CC1(C)Cc2nc(-c3ccccc3)nc(NNC(=O)c3ccco3)c2CO1	–	inconclusive: 6.51 µM [activator, partial curve, poor fit]
CC(=O)NCCC(=O)N1CCCC(N2CCN(c3cccc(Cl)c3)CC2)C1 (stereo not drawn)	–	inconclusive: 29.1 µM [activator, single point]
COc1cc(CN2CCNC(=O)C2CC(=O)NC2CCC2)cc(OC)c1 (stereo not drawn)	–	inconclusive: 16.4 µM [activator, partial curve, poor fit]
CCOC(=O)c1cnc(SCc2ccccc2)nc1N	–	inconclusive: 7.08 µM [activator, partial curve]
COc1ccccc1NC(=O)COC(=O)C1CC(=O)N(c2ccc3c(c2)OCCO3)C1 (stereo not drawn)	–	inconclusive: 25.9 µM [activator, single point]
